Source: the supplement of paper PMC10849652
This is one part of the list.

Protein sequences, listed by entry. Tags and fused reporters are not part of them. Lines headed by an entry give the natural chain unless they say otherwise; changes in a name come on top.
UniProt Q9H0E9, whole entry, looked up: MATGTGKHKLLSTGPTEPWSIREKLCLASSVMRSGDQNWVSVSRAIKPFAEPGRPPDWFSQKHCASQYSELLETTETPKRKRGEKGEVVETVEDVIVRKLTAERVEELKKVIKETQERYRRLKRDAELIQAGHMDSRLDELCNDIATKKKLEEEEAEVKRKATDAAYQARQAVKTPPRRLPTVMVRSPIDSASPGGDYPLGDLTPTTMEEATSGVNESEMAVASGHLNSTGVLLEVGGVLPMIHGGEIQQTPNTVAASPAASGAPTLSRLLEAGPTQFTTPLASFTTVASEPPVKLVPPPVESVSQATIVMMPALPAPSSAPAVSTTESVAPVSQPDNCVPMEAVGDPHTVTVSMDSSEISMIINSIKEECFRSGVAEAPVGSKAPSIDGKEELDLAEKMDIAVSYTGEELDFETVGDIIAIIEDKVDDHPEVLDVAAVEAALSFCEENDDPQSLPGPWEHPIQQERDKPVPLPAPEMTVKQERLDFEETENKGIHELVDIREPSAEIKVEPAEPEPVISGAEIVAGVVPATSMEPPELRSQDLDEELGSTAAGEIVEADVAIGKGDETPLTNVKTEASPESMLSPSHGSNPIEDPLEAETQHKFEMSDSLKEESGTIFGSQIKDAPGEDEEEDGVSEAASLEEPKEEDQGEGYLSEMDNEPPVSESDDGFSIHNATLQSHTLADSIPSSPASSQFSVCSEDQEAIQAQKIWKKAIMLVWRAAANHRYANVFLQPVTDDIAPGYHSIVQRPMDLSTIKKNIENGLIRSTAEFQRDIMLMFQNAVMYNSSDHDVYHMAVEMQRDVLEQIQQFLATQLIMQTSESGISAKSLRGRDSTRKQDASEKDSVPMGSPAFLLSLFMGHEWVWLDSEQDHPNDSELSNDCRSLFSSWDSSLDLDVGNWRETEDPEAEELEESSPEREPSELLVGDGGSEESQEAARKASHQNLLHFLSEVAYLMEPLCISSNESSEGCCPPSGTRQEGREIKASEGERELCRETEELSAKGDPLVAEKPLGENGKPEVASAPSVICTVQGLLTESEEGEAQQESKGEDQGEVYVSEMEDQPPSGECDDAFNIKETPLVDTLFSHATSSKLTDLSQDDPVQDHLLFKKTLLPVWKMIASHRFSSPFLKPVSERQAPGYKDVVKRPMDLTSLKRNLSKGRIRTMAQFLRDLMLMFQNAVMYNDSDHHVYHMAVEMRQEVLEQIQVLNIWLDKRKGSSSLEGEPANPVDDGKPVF
UniProt Q9NYF8, whole entry, looked up: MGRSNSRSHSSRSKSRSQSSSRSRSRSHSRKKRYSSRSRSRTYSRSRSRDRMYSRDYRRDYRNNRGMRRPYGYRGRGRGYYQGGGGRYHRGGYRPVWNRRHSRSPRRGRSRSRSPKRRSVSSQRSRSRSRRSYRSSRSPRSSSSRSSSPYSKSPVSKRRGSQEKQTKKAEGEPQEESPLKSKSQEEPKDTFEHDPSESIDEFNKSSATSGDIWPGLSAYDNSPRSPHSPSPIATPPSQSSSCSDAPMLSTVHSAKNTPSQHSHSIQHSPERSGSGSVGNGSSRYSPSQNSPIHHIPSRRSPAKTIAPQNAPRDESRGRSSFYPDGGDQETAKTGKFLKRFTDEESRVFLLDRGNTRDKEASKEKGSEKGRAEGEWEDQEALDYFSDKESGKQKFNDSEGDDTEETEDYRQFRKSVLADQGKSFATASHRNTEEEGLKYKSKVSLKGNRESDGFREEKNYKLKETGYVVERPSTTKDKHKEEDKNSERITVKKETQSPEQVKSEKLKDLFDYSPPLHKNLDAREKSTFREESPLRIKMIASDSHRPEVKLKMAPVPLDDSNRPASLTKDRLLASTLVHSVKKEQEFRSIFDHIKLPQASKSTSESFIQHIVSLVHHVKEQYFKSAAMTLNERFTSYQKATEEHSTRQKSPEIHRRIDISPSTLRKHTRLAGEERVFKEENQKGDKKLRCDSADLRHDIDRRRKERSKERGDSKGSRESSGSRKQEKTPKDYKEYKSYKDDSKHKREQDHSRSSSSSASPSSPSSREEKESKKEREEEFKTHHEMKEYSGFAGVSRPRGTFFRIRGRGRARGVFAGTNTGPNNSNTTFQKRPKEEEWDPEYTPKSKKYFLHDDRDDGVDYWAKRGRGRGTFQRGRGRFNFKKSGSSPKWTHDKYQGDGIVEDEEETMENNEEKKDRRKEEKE
UniProt Q8TDH9: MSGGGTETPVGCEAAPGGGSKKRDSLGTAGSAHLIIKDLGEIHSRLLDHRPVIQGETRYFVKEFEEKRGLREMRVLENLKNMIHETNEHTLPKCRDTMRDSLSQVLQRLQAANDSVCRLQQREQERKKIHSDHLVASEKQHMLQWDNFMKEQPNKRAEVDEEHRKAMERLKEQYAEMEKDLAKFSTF
UniProt Q7KYR7: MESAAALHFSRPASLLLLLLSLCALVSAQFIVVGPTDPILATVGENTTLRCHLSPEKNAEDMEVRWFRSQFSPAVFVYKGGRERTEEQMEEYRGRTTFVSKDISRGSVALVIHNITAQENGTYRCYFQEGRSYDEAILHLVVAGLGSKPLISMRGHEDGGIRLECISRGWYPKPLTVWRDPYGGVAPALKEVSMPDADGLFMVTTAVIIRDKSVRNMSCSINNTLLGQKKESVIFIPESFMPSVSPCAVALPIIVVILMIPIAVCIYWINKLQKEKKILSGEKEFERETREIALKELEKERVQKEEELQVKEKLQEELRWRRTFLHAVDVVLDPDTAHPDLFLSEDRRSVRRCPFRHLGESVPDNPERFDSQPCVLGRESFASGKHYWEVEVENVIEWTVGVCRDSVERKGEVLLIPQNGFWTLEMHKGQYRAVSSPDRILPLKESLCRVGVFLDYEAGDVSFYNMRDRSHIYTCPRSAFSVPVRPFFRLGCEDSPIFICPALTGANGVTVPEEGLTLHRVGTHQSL
UniProt Q9UL15: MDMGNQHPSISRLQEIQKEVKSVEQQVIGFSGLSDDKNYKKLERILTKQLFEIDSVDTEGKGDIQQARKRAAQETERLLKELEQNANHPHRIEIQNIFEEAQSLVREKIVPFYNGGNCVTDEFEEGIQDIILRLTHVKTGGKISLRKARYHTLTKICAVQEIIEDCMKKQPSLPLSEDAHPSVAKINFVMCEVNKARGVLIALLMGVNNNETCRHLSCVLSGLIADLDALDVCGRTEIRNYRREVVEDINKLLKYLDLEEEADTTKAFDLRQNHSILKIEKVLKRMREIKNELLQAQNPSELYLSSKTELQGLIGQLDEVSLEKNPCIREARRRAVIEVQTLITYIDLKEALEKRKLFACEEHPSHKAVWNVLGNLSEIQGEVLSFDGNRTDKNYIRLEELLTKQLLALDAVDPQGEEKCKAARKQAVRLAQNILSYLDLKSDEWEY
UniProt Q92843: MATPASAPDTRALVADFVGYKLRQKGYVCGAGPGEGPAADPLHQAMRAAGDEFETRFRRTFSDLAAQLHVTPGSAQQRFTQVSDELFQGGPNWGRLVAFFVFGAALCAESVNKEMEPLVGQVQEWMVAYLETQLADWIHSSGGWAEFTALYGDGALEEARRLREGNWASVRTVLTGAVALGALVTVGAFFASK
UniProt P38398, whole entry, looked up: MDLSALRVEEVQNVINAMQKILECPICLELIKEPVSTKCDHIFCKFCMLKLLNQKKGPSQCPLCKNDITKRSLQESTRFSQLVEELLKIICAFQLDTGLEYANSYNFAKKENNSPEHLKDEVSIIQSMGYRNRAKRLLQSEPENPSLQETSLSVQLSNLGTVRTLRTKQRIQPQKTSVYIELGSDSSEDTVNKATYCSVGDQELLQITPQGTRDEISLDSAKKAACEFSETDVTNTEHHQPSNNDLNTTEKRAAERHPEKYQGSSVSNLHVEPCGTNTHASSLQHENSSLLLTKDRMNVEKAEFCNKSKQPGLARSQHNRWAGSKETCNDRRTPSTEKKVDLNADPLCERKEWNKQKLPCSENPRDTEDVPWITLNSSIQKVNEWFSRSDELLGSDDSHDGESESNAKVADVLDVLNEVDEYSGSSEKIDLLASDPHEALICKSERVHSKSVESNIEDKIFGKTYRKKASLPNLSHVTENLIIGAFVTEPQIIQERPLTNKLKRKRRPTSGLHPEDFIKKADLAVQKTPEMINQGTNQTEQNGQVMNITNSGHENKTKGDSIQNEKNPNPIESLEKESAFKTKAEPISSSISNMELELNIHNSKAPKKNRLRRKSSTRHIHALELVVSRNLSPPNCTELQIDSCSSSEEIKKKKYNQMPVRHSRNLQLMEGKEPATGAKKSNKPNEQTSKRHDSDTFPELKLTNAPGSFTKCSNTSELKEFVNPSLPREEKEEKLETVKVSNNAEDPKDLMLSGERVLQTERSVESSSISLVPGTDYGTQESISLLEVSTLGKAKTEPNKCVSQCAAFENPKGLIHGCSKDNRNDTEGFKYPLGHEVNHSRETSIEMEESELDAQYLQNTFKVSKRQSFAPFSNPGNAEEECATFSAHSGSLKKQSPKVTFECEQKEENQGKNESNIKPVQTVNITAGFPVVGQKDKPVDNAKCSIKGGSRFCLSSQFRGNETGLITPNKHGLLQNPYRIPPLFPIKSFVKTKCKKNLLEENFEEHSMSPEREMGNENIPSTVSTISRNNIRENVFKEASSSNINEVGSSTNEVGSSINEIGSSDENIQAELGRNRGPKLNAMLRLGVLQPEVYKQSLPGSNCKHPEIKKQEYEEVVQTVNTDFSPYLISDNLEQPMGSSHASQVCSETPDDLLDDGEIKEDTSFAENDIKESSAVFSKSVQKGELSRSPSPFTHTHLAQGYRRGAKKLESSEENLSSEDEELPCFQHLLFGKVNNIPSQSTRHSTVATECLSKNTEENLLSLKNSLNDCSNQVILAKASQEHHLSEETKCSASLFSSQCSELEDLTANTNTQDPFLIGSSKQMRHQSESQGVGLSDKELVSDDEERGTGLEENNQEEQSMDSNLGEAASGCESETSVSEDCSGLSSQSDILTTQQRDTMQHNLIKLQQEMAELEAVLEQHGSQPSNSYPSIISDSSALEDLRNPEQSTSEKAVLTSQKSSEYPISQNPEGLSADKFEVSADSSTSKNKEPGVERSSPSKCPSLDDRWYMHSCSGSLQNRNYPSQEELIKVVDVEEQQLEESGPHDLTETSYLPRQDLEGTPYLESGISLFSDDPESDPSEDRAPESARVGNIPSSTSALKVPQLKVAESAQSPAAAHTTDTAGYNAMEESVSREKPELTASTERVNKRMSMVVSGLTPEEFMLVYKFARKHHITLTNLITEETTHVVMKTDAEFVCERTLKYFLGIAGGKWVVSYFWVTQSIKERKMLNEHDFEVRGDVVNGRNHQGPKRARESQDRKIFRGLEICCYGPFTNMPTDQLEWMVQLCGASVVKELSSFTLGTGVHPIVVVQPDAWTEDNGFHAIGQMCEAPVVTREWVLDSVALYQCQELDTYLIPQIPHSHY
UniProt Q96KE9: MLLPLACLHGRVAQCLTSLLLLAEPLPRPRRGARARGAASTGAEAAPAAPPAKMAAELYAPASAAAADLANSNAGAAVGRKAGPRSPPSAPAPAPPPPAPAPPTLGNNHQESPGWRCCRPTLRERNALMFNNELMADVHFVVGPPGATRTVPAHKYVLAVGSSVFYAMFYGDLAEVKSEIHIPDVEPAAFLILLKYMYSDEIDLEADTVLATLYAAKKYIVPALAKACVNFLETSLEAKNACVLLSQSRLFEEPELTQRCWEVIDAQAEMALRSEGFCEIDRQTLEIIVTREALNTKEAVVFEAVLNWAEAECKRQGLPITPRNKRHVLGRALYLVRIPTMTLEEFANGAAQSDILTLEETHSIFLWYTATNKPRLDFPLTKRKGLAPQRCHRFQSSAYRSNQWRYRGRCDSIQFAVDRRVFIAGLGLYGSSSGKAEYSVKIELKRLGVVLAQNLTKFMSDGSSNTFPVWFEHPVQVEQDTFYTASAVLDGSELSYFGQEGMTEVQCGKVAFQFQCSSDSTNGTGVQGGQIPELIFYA
UniProt P21953: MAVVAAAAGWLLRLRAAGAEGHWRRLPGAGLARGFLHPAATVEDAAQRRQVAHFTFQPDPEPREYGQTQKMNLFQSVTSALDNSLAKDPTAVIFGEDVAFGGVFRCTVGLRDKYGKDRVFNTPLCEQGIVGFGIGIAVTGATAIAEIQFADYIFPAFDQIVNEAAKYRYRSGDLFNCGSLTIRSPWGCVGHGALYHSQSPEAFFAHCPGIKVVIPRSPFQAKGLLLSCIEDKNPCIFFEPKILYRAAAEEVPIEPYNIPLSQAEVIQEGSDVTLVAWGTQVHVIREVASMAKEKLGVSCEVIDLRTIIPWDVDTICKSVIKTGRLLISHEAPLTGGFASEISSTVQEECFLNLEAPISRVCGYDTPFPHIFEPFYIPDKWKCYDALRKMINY
UniProt P55957: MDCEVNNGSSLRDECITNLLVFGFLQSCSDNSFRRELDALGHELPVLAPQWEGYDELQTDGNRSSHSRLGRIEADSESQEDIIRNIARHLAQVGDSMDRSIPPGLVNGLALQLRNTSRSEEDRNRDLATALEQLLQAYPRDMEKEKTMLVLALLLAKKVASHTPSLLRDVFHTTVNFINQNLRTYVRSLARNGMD

Compound: C1COCCN1CCN2C3=CC=CC=C3N=C2NC(=O)C4=CC(=CC=C4)[N+](=O)[O-] [IRAK-1-4 Inhibitor I]
Assay: log2 fold change, soluble protein after heating vs DMSO (PISA); higher = thermal stabilisation; K562 lysate, 10 uM; active = over 0.2 and 3.5 SD of the protein, either way, in both replicates (recomputed)
Outline: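 Quantification was by TMTpro 16plex LC-MS/MS with equalised channel sums, applied to the supernatant after 21,000xg for 90 min. Samples were crude K562 extract at 1 mg/mL protein in PBS pH 7.4 with 1 mM MgCl2, treated with 10 μM compound for 30 min, heated for 3 min across 48°C-58°C, pooled and brought to 0.5% NP-40 at 4°C. Values are log-two fold changes in thermal stability relative to solvent controls, from duplicates.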

log2 fold change, inactive:
BRD8 isoform 2 (UniProt Q9H0E9) -0.016
BAIAP2 (UniProt Q9UQB8) 0
BAG6 isoform 3 (UniProt P46379) 0.006
BPTF (UniProt Q12830) 0.015
BAG1 (UniProt Q99933) 0.017
BCL7B (UniProt Q9BQE9) -0.08
BCLAF1 (UniProt Q9NYF8) 0.002
BLOC1S5 (UniProt Q8TDH9) 0.045
BTN2A1 (UniProt Q7KYR7) -0.019
BAG5 isoform 2 (UniProt Q9UL15) 0.01
BCL2L2 isoform 2 (UniProt Q92843) 0.009
BRCA1 isoform 7 (UniProt P38398) 0.053
BRIX1 (UniProt Q8TDN6) -0.013
BCL7C isoform 2 (UniProt Q8WUZ0) -0.043
BTBD6 (UniProt Q96KE9) 0.208
BCOR (UniProt Q6W2J9) -0.033
BORCS5 (UniProt Q969J3) 0.004
BPHL (UniProt Q86WA6) -0.033
BET1 (UniProt O15155) 0.006
BNIP2 (UniProt J3KN59) -0.023
BORCS6 (UniProt Q96GS4) 0.001
BIRC5 (UniProt O15392) 0.061
BCAR1 isoform 6 (UniProt P56945) -0.017
BAG2 (UniProt O95816) -0.005
BARD1 (UniProt Q99728) 0.061
BTAF1 (UniProt O14981) -0.034
BSG (UniProt P35613) -0.028
BCAS2 (UniProt O75934) -0.009
BCKDHB (UniProt P21953) 0.134
BTF3L4 (UniProt Q96K17) 0.056
BID isoform 2 (UniProt P55957) 0.024
BCL2L13 (UniProt Q9BXK5) 0.024
BCKDK (UniProt O14874) -0.097
BLOC1S3 (UniProt Q6QNY0) 0.061

Looked up one by one from above, two records:
log2 fold change, inactive:
BORCS6 (UniProt Q96GS4) 0.001
BRD8 isoform 2 (UniProt Q9H0E9) -0.016
